Reference: ChEMBL document CHEMBL3244030, “2-Methoxyphenylethanolamines, potential beta-adrenergic blocking agents” (J Med Chem, 1978)

Sequences of proteins named here, by UniProt entry; tags and fusion partners are left off.
UniProt B0FL73, whole entry: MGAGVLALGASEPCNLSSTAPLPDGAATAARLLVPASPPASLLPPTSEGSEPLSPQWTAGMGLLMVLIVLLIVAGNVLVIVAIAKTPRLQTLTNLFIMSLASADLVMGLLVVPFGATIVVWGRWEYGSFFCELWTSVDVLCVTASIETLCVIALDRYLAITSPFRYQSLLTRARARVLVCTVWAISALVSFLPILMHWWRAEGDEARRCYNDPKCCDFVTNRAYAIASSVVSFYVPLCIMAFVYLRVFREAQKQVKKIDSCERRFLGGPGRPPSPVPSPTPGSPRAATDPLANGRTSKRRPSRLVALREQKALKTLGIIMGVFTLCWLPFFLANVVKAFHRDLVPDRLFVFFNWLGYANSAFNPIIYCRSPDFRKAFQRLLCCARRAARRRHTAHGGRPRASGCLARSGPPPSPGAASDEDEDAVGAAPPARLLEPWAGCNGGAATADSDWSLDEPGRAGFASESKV

Target: Beta-1 adrenergic receptor (Cavia porcellus, UniProt B0FL73)
Test: Antagonist activity at beta1 adrenoceptor in guinea pig atrium assessed as inhibition of isoproterenol-induced response after 20 mins
Design: species or system Cardiac atrium
Settings: read-out: pA2 (converted)

## CC(C)NCC(O)COc1ccc(CC(N)=O)cc1 (stereo unspecified) [ATENOLOL]
  Kb: 43.7 nM
